Test results taken from the supplement of paper PMC6445147.
Single values of this data set are uncertain.

B1: human tRNA-Pro; a variant is named by its letters at N, in order (parent)
chain: GGCTCGTTGGTCTAGNGGTATGATTCTCGCTTAGGGTGCGAGAGGTCCCGGGTTCNNATCCCGGACGAGCCC

Variants of: B1
Assay: tRNA 3' processing efficiency (processed reads / all reads, maximum-likelihood estimate) (fraction); higher = more efficient 3' processing
Details: HEK293T; construct: no Pol-II promoter ((-)CMV library)

Variant | tRNA 3' processing efficiency
GGA G18A A58T T59A | 0.25
GGA A14T T19C A58T | 0.25
GAA A14T G18T T19C A58C T59G | 0.33
GAG A14G G17T A20T | 0.2
GGC A14T A20T T53G | 0.33
TGG T8C | 0.25
GTA G15A T19A A58G T59G | 0.17
CTA A20T A58G | 0.2
GGG T8A A14G G18C T19A | 0.25
GGA A14C G15C A58C | 0.17
GAA T13C T59C | 0.4
GTT G18T T19C | 0.25
GAA G17T G51C T59G | 0.22
GAA A20G A33G | 0.17
AAA T19G A20C T53C | 0.4
GAA G15T G17C A20C T59G | 0.33
GTA T19G A58C T59G | 0.25
GGA T8C A58G T59C | 0.25
GTC G18A T19G A58T | 0.13
GGA A14C T54A | 0.08
GGA G34A A58G T59G | 0.4
GAT G17T G18C T31A | 0.25
AGA A14C T53G | 0.17
CGT T19A T54A | 0.3

Variant | tRNA 3' processing efficiency
GAA T19A A20C T53A A58G | 0.02
GAA C48T T59C | 0.56
GAA T8G G17A G18A A20G | 0.62
AGA G15A T19G A58G T59G | 0.73
CAA A14C A20T T53A | 0.29
GTA G17C G18C A58C | 0.25
GAT A43T | 0.17
ATA A20T T53A T59C | 0.25
CAG A58T T59G | 0.33
GAA A14G G17A A58C T59C | 0.17
CAA T8C G17C A58T | 0.6
GGA G15C T19A C55T A58C | 0.11
GGT A20T T53A | 0.64
CAA A14C T53A | 0.17
GAG T19G T53A T59A | 0.75
AAC A14C A58C | 0.13
CAA G9C A20T C55G | 0.5
CAA G9T T19C C55T | 0.17
GTT T19C A58G T59A | 0.33
TAG A33G | 0.2
GGA T8C T53G A58G T59G | 0.17
GAA G9T G51T | 0.25
GAT A14G G17A T19G | 0.4
CGC A58T | 0.25

Six records drawn at random from those above:
Variant | tRNA 3' processing efficiency
GAA G9T G51T | 0.25
GAA T19A A20C T53A A58G | 0.02
AAA T19G A20C T53C | 0.4
GTA G17C G18C A58C | 0.25
CAA A14C A20T T53A | 0.29
CAA G9C A20T C55G | 0.5

Next entries

Variant | tRNA 3' processing efficiency
GAA T8C T19A A20G A58G | 0.4
GAG A14T T19G G51T A58T | 0.33
GAA T8C G9A A14C G18A T19C A58C | 0.17
TGA T8C A14C A58T | 0.4
CTA T19A C55A A58G | 0.5
CTA G15C T59A | 0.42
GGA T8C G15C A58T | 0.33
AAA A20T G51T T59G | 0.38
TAG G15C T59G | 0.5
AAA G9A G15T A58C | 0.57
CAT T19A A20C T59C | 0.25
GTA G6A T59C | 0.4
CGA A14T T19A T54A | 0.29
GTA G2C C3T C5T T8G G15T | 0.33
ACA A14G T19G A58G | 0.43
TAA G51A T53A A58G | 0.38
GTA T8G G15T A58C | 0.75
GAG A33G | 0.5
CAC A14G T19G | 0.4
GGA T19A A33G | 0.25
TAG G9A A20T T59G | 0.5
TTA T19A A20C T59A | 0.2
GAA G9A A14T G15C T53A | 0.62
GAA T8G G9C G15A A20G A58G | 0.4

Variant | tRNA 3' processing efficiency
GTA T8C G15T T59A | 0.2
GAA G15A A33G A58G | 0.2
CAA A14T T19G A20T A58G | 0.17
CGG T8C G18A T19C | 0.31
TGA A14G G17A C55G T59C | 0.43
GAA G15C T19A A58G T59G | 0.25
GGC T11A | 0.5
GAA G9A G15C T19C T53G | 0.4
TAG G9A A14T T19A A20G | 0.2
GAC A58G T59G C62T | 0.4
AGA A14T T54C A58C | 0.5
CTT T8C | 0.4
GAA G9T G51A | 0.5
TTA A14C A58G T59G | 0.33
GCA G9T G15C T19C | 0.25
GAA G2A T53A | 0.25
TTA T19A C55G | 0.25
GGA T8C T19A A58T | 0.73
CAA G51T | 0.42
TTA A58T T59G | 0.07
AAA A14T T31C A58T | 0.4
TCA A20G A58C | 0.2
GAA C3T T4G G6T T8A | 0.67
GGG T8C G18A | 0.08

Variant | tRNA 3' processing efficiency
ATA T19G A58T | 0.17
GTA A14C G18A T59G | 0.4
GAA T13C T53C | 0.33
GAA G18T C49G | 0.25
GAG T8G G15T G17C G51A | 0.4
ACA T19G T59G | 0.4
GGA A14C G15C | 0.5
CAG A14G T19A | 0.79
GCC A14T T19G | 0.2
GGG T8A G9A G17A G18A A20C | 0.25
TTA T19A A58C | 0.38
TAG T19C A20C A58G T59A | 0.25
GAG T53A T59C C61T | 0.4
CAA G15C T19G T59G | 0.17
GGC T8C T59G | 0.64
CGA G9T T54A A58G | 0.33
AAA T19G T53A A58G | 0.44
TAA A14T T54A A58G | 0.4
GGG G15C T19G | 0.25
GAC T8A A14G A20G | 0.25
GAA T19A G51A A58T | 0.25
TCA A14C T19A | 0.25
AGA A14T T54A C55T T59A | 0.4
TAA G15T T53A A58T | 0.17

Variant | tRNA 3' processing efficiency
TAG G9C A20C | 0.25
CGA T8C C55T | 0.25
GAT T19A A58C T59G | 0.25
TTA A14T G17T A58T | 0.4
TGA G9A A58C | 0.29
AAA A20T T53G A58C | 0.56
GAA G17T A20T A58T C62T | 0.13
ACA T53C A58G T59C | 0.5
GAG G9A G15T G18T | 0.25
GCA A14G G17A G18C A20G T59G | 0.25
GAG T8G G17T T19G A58T | 0.3
GGA G9T G17C G18T A58G | 0.5
GGG G15T T59A | 0.38
GAC T24C | 0.25
TAA C55T A58G T59G | 0.5
GAA T8A A14T G17T G18A A58T T59A | 0.4
GGC T19A T59C | 0.4
GCA T8C A14C T53A | 0.2
CAA G15A A58G T59G | 0.29
GAT T19A A20C A58T | 0.4
GAA T8G G9T T19A A58C T59A | 0.4
CGC T8C A20T | 0.43
GGA A14T T19C T53G | 0.5
GAA T8C G9T A20G T59A | 0.17

For reference, part of the list above.
Variant | tRNA 3' processing efficiency
ACA T53C A58G T59C | 0.5
GAG G9A G15T G18T | 0.25
GCA A14G G17A G18C A20G T59G | 0.25
GAG T8G G17T T19G A58T | 0.3
GGA G9T G17C G18T A58G | 0.5

Next results:

Variant | tRNA 3' processing efficiency
GCA T8A G15T G18A | 0.25
TTA T19C A58T | 0.25
GTG A14T T19A | 0.4
CAA T19G A58G T59A | 0.15
GTC A14T T19A A20G | 0.33
AAC G17T A58G | 0.73
GTA A14G T19A A20G | 0.25
GAT A14G G15A G18A | 0.25
CAA A14G A58C T59C | 0.39
GAA G9A A14T T53A T59C | 0.22
GAA T19A G51A | 0.2
CAA T11C C55T | 0.75
GGA T19A C55T A58G T59A C62T | 0.5
GTC T8C A14C A20T | 0.2
TTC T8A T19C | 0.25
GAA A14C G50A T53A T59C | 0.25
TAC T53A T59G | 0.25
GAT G17C G18C T19G A20T | 0.62
GAG T8C A33T | 0.2
TAA T19A A58C T59G | 0.4
TAT G44T | 0.25
GAT G9T T19A A20T A58T | 0.22

Variants of: B1
Assay: tRNA 5' processing efficiency (processed reads / all reads, maximum-likelihood estimate) (fraction); higher = more efficient 5' processing
Details: HEK293T; construct: CMV Pol-II promoter ((+)CMV library, decapped)

Variant | tRNA 5' processing efficiency
CAA A14C T53A | 0.6
